PubChem BioAssay AID686943 | Drosophila RNAi Screening Center, 2013
The deposit covers about 23,000 reagents; below is a random part of those that have a named target and a result. 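Extra replicates exist only for a retested subset of genes; insulin dose and duration not given; both raised and lowered dpERK matter.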 Further read-outs or replicates are left out here. The record does not give: the amount of reagent, the time to read-out.

- Test: 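Fly genes whose loss alters ERK activation after insulin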 (primary screen)
- Cells: Drosophila S2R+ haemocyte-like cells expressing YFP-tagged ERK (Rolled)
- Knock-down reagent: long dsRNA against Drosophila genes
- Challenge: insulin stimulation versus unstimulated cells; dose and duration not given
- Measurement: 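Antibody staining for doubly phosphorylated ERK divided by ERK-YFP signal, as plate z-scores, in insulin-treated and untreated cells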
- Reading the numbers: replicate 1, z-score of dpERK with insulin and replicate 2, z-score of dpERK with insulin: higher = more active ERK per ERK-YFP after insulin

CG43366 (GeneID 35519) [DRSC04857] scored replicate 1, z-score of dpERK with insulin -0.01; replicate 2, z-score of dpERK with insulin 0.23.
With knock-down of CG43366 (GeneID 35519) [DRSC04864], the screen gave replicate 1, z-score of dpERK with insulin -0.38; replicate 2, z-score of dpERK with insulin 0.81.
aru (GeneID 33268) [DRSC00802] gave replicate 1, z-score of dpERK with insulin 0.06; replicate 2, z-score of dpERK with insulin 0.17.
aru (GeneID 33268) [DRSC22019] gave replicate 1, z-score of dpERK with insulin 0.21; replicate 2, z-score of dpERK with insulin 0.53.
With knock-down of CG11368 (GeneID 50397) [DRSC17778], the record shows replicate 1, z-score of dpERK with insulin -0.01; replicate 2, z-score of dpERK with insulin 0.55.
Silencing of CG17650 (GeneID 33358) [DRSC00510] came out at: replicate 1, z-score of dpERK with insulin 0.03; replicate 2, z-score of dpERK with insulin -0.15.
For CG8042 (GeneID 38886) [DRSC09676], the values are replicate 1, z-score of dpERK with insulin 0.04; replicate 2, z-score of dpERK with insulin -0.1.
After knock-down of mu2 (GeneID 38257) [DRSC08726], the record shows replicate 1, z-score of dpERK with insulin 0.77; replicate 2, z-score of dpERK with insulin 0.6.
For mu2 (GeneID 38257) [DRSC21534], the values are replicate 1, z-score of dpERK with insulin 0.52; replicate 2, z-score of dpERK with insulin 0.28.
After knock-down of Yp3 (GeneID 32339) [DRSC20302], the record shows replicate 1, z-score of dpERK with insulin 0.09; replicate 2, z-score of dpERK with insulin -0.52.
Against PK2-R1 (GeneID 41639) [DRSC16447], the entry reads replicate 1, z-score of dpERK with insulin -1.16; replicate 2, z-score of dpERK with insulin 0.35.
With knock-down of brat (GeneID 35197) [DRSC03497], the screen gave replicate 1, z-score of dpERK with insulin -1.2; replicate 2, z-score of dpERK with insulin -2.97.
CR33318 (GeneID 3771976) [DRSC22949] showed replicate 1, z-score of dpERK with insulin -0.54; replicate 2, z-score of dpERK with insulin 1.33.
Depletion of etaTry (GeneID 36217) [DRSC07613] came out at: replicate 1, z-score of dpERK with insulin -0.19; replicate 2, z-score of dpERK with insulin 0.06.

An excerpt of the results above, for reference:
CG43366 (GeneID 35519) [DRSC04864] → replicate 1, z-score of dpERK with insulin = -0.38; replicate 2, z-score of dpERK with insulin = 0.81
aru (GeneID 33268) [DRSC00802] → replicate 1, z-score of dpERK with insulin = 0.06; replicate 2, z-score of dpERK with insulin = 0.17
aru (GeneID 33268) [DRSC22019] → replicate 1, z-score of dpERK with insulin = 0.21; replicate 2, z-score of dpERK with insulin = 0.53

Next entries follow:
Knock-down of CG32052 (GeneID 326184) [DRSC10966] gave: replicate 1, z-score of dpERK with insulin 0.74; replicate 2, z-score of dpERK with insulin 0.03.
CG31510 (GeneID 326146) [DRSC14182] showed replicate 1, z-score of dpERK with insulin 0.37; replicate 2, z-score of dpERK with insulin 0.
CG31870 (GeneID 318993) [DRSC21681] scored replicate 1, z-score of dpERK with insulin 0.23; replicate 2, z-score of dpERK with insulin 0.36.
After knock-down of Fpps (GeneID 36209) [DRSC07429], the screen gave replicate 1, z-score of dpERK with insulin 0.01; replicate 2, z-score of dpERK with insulin -0.37.
Sec63 (GeneID 38819) [DRSC11002] showed replicate 1, z-score of dpERK with insulin 0.38; replicate 2, z-score of dpERK with insulin 0.18.
With knock-down of RpL37A (GeneID 44783) [DRSC02899], the screen gave replicate 1, z-score of dpERK with insulin -1.74; replicate 2, z-score of dpERK with insulin -1.97.
For TP53INP (GeneID 38543) [DRSC08178], the entry reads replicate 1, z-score of dpERK with insulin 0.69; replicate 2, z-score of dpERK with insulin 1.73.
TP53INP (GeneID 38543) [DRSC22552] scored replicate 1, z-score of dpERK with insulin 0.99; replicate 2, z-score of dpERK with insulin 0.79.
Against Prosalpha6T (GeneID 34726) [DRSC02873], the values are replicate 1, z-score of dpERK with insulin -1.68; replicate 2, z-score of dpERK with insulin -0.63.
CG10470 (GeneID 35174) [DRSC02061] showed replicate 1, z-score of dpERK with insulin -0.5; replicate 2, z-score of dpERK with insulin -0.53.
After knock-down of U2af50 (GeneID 32602) [DRSC20297], the screen gave replicate 1, z-score of dpERK with insulin -1.55; replicate 2, z-score of dpERK with insulin -3.07.
Knock-down of U2af50 (GeneID 32602) [DRSC22867] came out at: replicate 1, z-score of dpERK with insulin -2.01; replicate 2, z-score of dpERK with insulin -2.35.
After knock-down of gb (GeneID 43265) [DRSC15961] the results were replicate 1, z-score of dpERK with insulin -0.04; replicate 2, z-score of dpERK with insulin 0.49.
For Ubc2 (GeneID 34487) [DRSC01137], the entry reads replicate 1, z-score of dpERK with insulin -0.46; replicate 2, z-score of dpERK with insulin 0.2.
Silencing of Ubc2 (GeneID 34487) [DRSC03468] came out at: replicate 1, z-score of dpERK with insulin -1.89; replicate 2, z-score of dpERK with insulin -0.8.
Against par-6 (GeneID 32752) [DRSC20359], the entry reads replicate 1, z-score of dpERK with insulin -0.54; replicate 2, z-score of dpERK with insulin 0.51.
Knock-down of LSm1 (GeneID 37413) [DRSC04458] came out at: replicate 1, z-score of dpERK with insulin -0.52; replicate 2, z-score of dpERK with insulin 0.09.
